From EP2298778A1, “IMIDAZOTHIAZOLE DERIVATIVE HAVING 4,7-DIAZASPIROÝ2.5¨OCTANE RING STRUCTURE” (Daiichi Sankyo Company, Limited, priority 2008, dated 2009)
Some entries share one result that the patent states for a list of compounds. For at least one compound, name, drawing or mass did not settle the structure.

Sequences of proteins named here, by UniProt entry; tags and fusion partners are left off. Residues count along the entry.
UniProt Q00987, 25-108 L33E, species assumed: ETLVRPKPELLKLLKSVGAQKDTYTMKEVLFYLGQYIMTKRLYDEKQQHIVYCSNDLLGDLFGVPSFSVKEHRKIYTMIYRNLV

Target: T1, Mdm2/p53 binding (His-p53 and GST-Mdm2) (Homo sapiens, UniProt Q00987, L33E)
T1 construct: a Mdm2 partial protein, having Mdm2 amino acids at positions 25 to 108 with leucine residue 33 substituted by glutamic acid
Test: Mdm2/p53 binding assay (HTRF, time-resolved fluorescence)
Conditions: His-p53 (aa 1 to 132) and GST-Mdm2 (aa 25 to 108, L33E), 6.25 nM each; 25°C for 1 hour; sigmoid fitting; read-out: Mdm2/p53 binding inhibiting activity of IC50

## CC(C)C1=C(C(=O)N2[C@H](C)CC[C@H]2C(=O)N2CCN(CCO)C3(CC3)C2)SC2=N[C@@](C)(c3ccc(Cl)cc3)[C@@H](c3ccc(Cl)cc3)N21 [Example 3, 2-{7-[(5R)-1-{[(5R,6S)-5,6-bis(4-chlorophenyl)-3-isopropyl-6-methyl-5,6-dihydroimidazo[2,1-b][1,3]thiazol-2-yl]carbonyl}-5-methyl-L-prolyl]-4,7-diazaspiro[2.5]oct-4-yl}ethanol]
  IC50: < 200 nM

## CC(=O)N1CCN(C(=O)[C@@H]2CC[C@@H](C)N2C(=O)C2=C(C(C)C)N3C(=N[C@@](C)(c4ccc(Cl)cc4)[C@H]3c3ccc(Cl)cc3)S2)CC12CC2 [Example 4, 4-acetyl-7-[(5R)-1-{[(5R,6S)-5,6-bis(4-chlorophenyl)-3-isopropyl-6-methyl-5,6-dihydroimidazo[2,1-b][1,3]thiazol-2-yl]carbonyl}-5-methyl-L-prolyl]-4,7-diazaspiro[2.5]octane]
  IC50: < 200 nM

## CC(C)C1=C(C(=O)N2[C@H](C)CC[C@H]2C(=O)N2CCN(C)C3(CC3)C2)SC2=N[C@@](C)(c3ccc(Cl)cc3)[C@@H](c3ccc(Cl)c(F)c3)N21 [Example 6, 7-[(5R)-1-{[(5R,6S)-5-(4-chloro-3-fluorophenyl)-6-(4-chlorophenyl)-3-isopropyl-6-methyl-5,6-dihydroimidazo[2,1-b][1,3]thiazol-2-yl]carbonyl}-5-methyl-L-prolyl]-4-methyl-4,7-diazaspiro[2.5]octane]
  IC50: < 200 nM

## CC(C)C1=C(C(=O)N2[C@H](C)CC[C@H]2C(=O)N2CCN(CCO)C3(CC3)C2)SC2=N[C@@](C)(c3ccc(Cl)cc3)[C@@H](c3ccc(Cl)c(F)c3)N21 [Example 7, 2-{7-[(5R)-1-{[(5R,6S)-5-(4-chloro-3-fluorophenyl)-6-(4-chlorophenyl)-3-isopropyl-6-methyl-5,6-dihydroimidazo[2,1-b][1,3]thiazol-2-yl]carbonyl}-5-methyl-L-prolyl]-4,7-diazaspiro[2.5]oct-4-yl}ethanol]
  IC50: < 200 nM

## CC(C)C1=C(C(=O)N2[C@H](C)CC[C@H]2C(=O)N2CCNC3(CC3)C2)SC2=N[C@@](C)(c3ccc(Cl)nc3)[C@@H](c3ccc(Cl)cc3)N21 [Example 8, 7-[(5R)-1-{[(5R,6S)-5-(4-chlorophenyl)-6-(6-chloropyridin-3-yl)-3-isopropyl-6-methyl-5,6-dihydroimidazo[2,1-b][1,3]thiazol-2-yl]carbonyl}-5-methyl-L-prolyl]-4,7-diazaspiro[2.5]octane]
  IC50: < 200 nM

## CC(C)C1=C(C(=O)N2[C@H](C)CC[C@H]2C(=O)N2CCN(C)C3(CC3)C2)SC2=N[C@@](C)(c3ccc(Cl)nc3)[C@@H](c3ccc(Cl)cc3)N21 [Example 9, 7-[(5R)-1-{[(5R,6S)-5-(4-chlorophenyl)-6-(6-chloropyridin-3-yl)-3-isopropyl-6-methyl-5,6-dihydroimidazo[2,1-b][1,3]thiazol-2-yl]carbonyl}-5-methyl-L-prolyl]-4-methyl-4,7-diazaspiro[2.5]octane]
  IC50: < 200 nM

## CC(C)C1=C(C(=O)N2[C@H](C)CC[C@H]2C(=O)N2CCN(CCO)C3(CC3)C2)SC2=N[C@@](C)(c3ccc(Cl)nc3)[C@@H](c3ccc(Cl)cc3)N21 [Example 10, 2-{7-[(5R)-1-{[(5R,6S)-5-(4-chlorophenyl)-6-(6-chloropyridin-3-yl)-3-isopropyl-6-methyl-5,6-dihydroimidazo[2,1-b][1,3]thiazol-2-yl]carbonyl}-5-methyl-L-prolyl]-4,7-diazaspiro[2.5]oct-4-yl}ethanol]
  IC50: < 200 nM

## CC(C)C1=C(C(=O)N2[C@H](C)CC[C@H]2C(=O)N2CCN(C)C3(CC3)C2)SC2=N[C@@](C)(c3ccc(Cl)nc3)[C@@H](c3ccc(Cl)c(F)c3)N21 [Example 12, 7-[(5R)-1-{[(5R,6S)-5-(4-chloro-3-fluorophenyl)-6-(6-chloropyridin-3-yl)-3-isopropyl-6-methyl-5,6-dihydroimidazo[2,1-b][1,3]thiazol-2-yl]carbonyl}-5-methyl-L-prolyl]-4-methyl-4,7-diazaspiro[2.5]octane]
  IC50: < 200 nM

## CC(C)C1=C(C(=O)N2[C@H](C)CC[C@H]2C(=O)N2CCN(CCO)C3(CC3)C2)SC2=N[C@@](C)(c3ccc(Cl)nc3)[C@@H](c3ccc(Cl)c(F)c3)N21 [Example 13]
  IC50: < 200 nM

## CCN1CCN(C(=O)[C@@H]2CC[C@@H](C)N2C(=O)C2=C(C(C)C)N3C(=N[C@@](C)(c4ccc(Cl)nc4)[C@H]3c3ccc(Cl)c(F)c3)S2)CC12CC2 [Example 14, 7-[(5R)-1-{[(5R,6S)-5-(4-chloro-3-fluorophenyl)-6-(6-chloropyridin-3-yl)-3-isopropyl-6-methyl-5,6-dihydroimidazo[2,1-b][1,3]thiazol-2-yl]carbonyl}-5-methyl-L-prolyl]-4-ethyl-4,7-diazaspiro[2.5]octane]
  IC50: < 200 nM

## CC(C)C1=C(C(=O)N2CC(=O)NC3(CC3)C2)SC2=N[C@@](C)(c3ccc(Cl)cc3)[C@@H](c3ccc(Cl)cc3)N21 [Example 15, 7-{[(5R,6S)-5,6-bis(4-chlorophenyl)-3-isopropyl-6-methyl-5,6-dihydroimidazo[2,1-b][1,3]thiazol-2-yl]carbonyl}-4,7-diazaspiro[2.5]octan-5-one]
  IC50: < 200 nM

## CC(C)C1=C(C(=O)N2[C@H](C)CC[C@H]2C(=O)N2C[C@@H](C)NC3(CC3)C2)SC2=N[C@@](C)(c3ccc(Cl)cc3)[C@@H](c3ccc(Cl)cc3)N21 [Example 16, (5R)-7-[(5R)-1-{[(5R,6S)-5,6-bis(4-chlorophenyl)-3-isopropyl-6-methyl-5,6-dihydroimidazo[2,1-b][1,3]thiazol-2-yl]carbonyl}-5-methyl-L-prolyl]-5-methyl-4,7-diazaspiro[2.5]octane]
  IC50: < 200 nM

## CC(C)C1=C(C(=O)N2[C@H](C)CC[C@H]2C(=O)N2C[C@@H](C)NC3(CC3)C2)SC2=N[C@@](C)(c3ccc(Cl)nc3)[C@@H](c3ccc(Cl)c(F)c3)N21 [Example 17, (5R)-7-[(5R)-1-{ [(5R,6S)-5-(4-chloro-3-fluorophenyl)-6-(6-chloropyridin-3-yl)-3-isopropyl-6-methyl-5,6-dihydroimidazo[2,1-b][1,3]thiazol-2-yl]carbonyl}-5-methyl-L-prolyl]-5-methyl-4,7-diazaspiro[2.5]octane]
  IC50: < 200 nM

## CC(C)C1=C(C(=O)N2[C@H](C)CC[C@H]2C(=O)N2C[C@@H](C)N(C)C3(CC3)C2)SC2=N[C@@](C)(c3ccc(Cl)nc3)[C@@H](c3ccc(Cl)c(F)c3)N21 [Example 18, (5R)-7-[(5R)-1-{[(5R,6S)-5-(4-chloro-3-fluorophenyl)-6-(6-chloropyridin-3-yl)-3-isopropyl-6-methyl-5,6-dihydroimidazo[2,1-b][1,3]thiazol-2-yl]carbonyl}-5-methyl-L-prolyl]-4,5-dimethyl-4,7-diazaspiro[2.5]octane]
  IC50: < 200 nM

## CC(C)C1=C(C(=O)N2[C@H](C)CC[C@H]2C(=O)N2C[C@H](C)NC3(CC3)C2)SC2=N[C@@](C)(c3ccc(Cl)nc3)[C@@H](c3ccc(Cl)c(F)c3)N21 [Example 19, (5S)-7-[(5R)-1-([(5R,6S)-5-(4-chloro-3-fluorophenyl)-6-(6-chloropyridin-3-yl)-3-isopropyl-6-methyl-5,6-dihydroimidazo[2,1-b][1,3]thiazol-2-yl]carbonyl}-5-methyl-L-prolyl]-5-methyl-4,7-diazaspiro[2.5]octane]
  IC50: < 200 nM

## CC(C)C1=C(C(=O)N2[C@H](C)CC[C@H]2C(=O)N2C[C@H](C)N(C)C3(CC3)C2)SC2=N[C@@](C)(c3ccc(Cl)nc3)[C@@H](c3ccc(Cl)c(F)c3)N21 [Example 20, (5S)-7-[(5R)-1-{[(5R,6S)-5-(4-chloro-3-fluorophenyl)-6-(6-chloropyridin-3-yl)-3-isopropyl-6-methyl-5,6-dihydroimidazo[2,1-b][1,3]thiazol-2-yl]carbonyl}-5-methyl-L-prolyl]-4,5-dimethyl-4,7-diazaspiro[2.5]octane]
  IC50: < 200 nM

## CC(C)C1=C(C(=O)N2[C@H](C)CC[C@H]2C(=O)N2CC3(CC3)N(C)C[C@@H]2C)SC2=N[C@@](C)(c3ccc(Cl)nc3)[C@@H](c3ccc(Cl)c(F)c3)N21 [Example 22, (6S)-7-[(5R)-1-{[(5R,6S)-5-(4-chloro-3-fluorophenyl)-6-(6-chloropyridin-3-yl)-3-isopropyl-6-methyl-5,6-dihydroimidazo[2,1-b][1,3]thiazol-2-yl]carbonyl}-5-methyl-L-prolyl]-4,6-dimethyl-4,7-diazaspiro[2.5]octane]
  IC50: < 200 nM

## CC(C)C1=C(C(=O)N2[C@H](C)CC[C@H]2C(=O)N2CC3(CC3)N(C)C[C@H]2C)SC2=N[C@@](C)(c3ccc(Cl)nc3)[C@@H](c3ccc(Cl)c(F)c3)N21 [Example 24, (6R)-7-[(5R)-1-{[(5R,6S)-5-(4-chloro-3-fluorophenyl)-6-(6-chloropyridin-3-yl)-3-isopropyl-6-methyl-5,6-dihydroimidazo[2,1-b][1,3]thiazol-2-yl]carbonyl}-5-methyl-L-prolyl]-4,6-dimethyl-4,7-diazaspiro[2.5]octane]
  IC50: < 200 nM

## CC(C)C1=C(C(=O)N2[C@H](C)CC[C@H]2C(=O)N2CCNC3(CC3)C2)SC2=N[C@@](C)(c3ccc(F)cc3)[C@@H](c3ccc(Cl)c(F)c3)N21 [Example 25, 7-[(5R)-1-{[(5R,6S)-5-(4-chloro-3-fluorophenyl)-6-(4-fluorophenyl)-3-isopropyl-6-methyl-5,6-dihydroimidazo[2,1-b][1,3]thiazol-2-yl]carbonyl}-5-methyl-L-prolyl]-4,7-diazaspiro[2.5]octane]
  IC50: < 200 nM

## CC(C)C1=C(C(=O)N2[C@H](C)CC[C@H]2C(=O)N2CCNC3(CC3)C2)SC2=N[C@@](C)(c3ccc(Cl)nc3)[C@@H](c3ccc(F)c(Cl)c3)N21 [Example 26, 7-[(5R)-1-{[(5R,6S)-5-(3-chloro-4-fluorophenyl)-6-(6-chloropyridin-3-yl)-3-isopropyl-6-methyl-5,6-dihydroimidazo[2,1-b][1,3]thiazol-2-yl]carbonyl}-5-methyl-L-prolyl]-4,7-diazaspiro[2.5]octane]
  IC50: < 200 nM
